These results are taken from publication PMC9066784.

Chains of the proteins cited; added tags and fusions are not shown. Lines headed by an entry give the natural chain unless they say otherwise; changes in a name come on top. Residues count along the entry.
UniProt P46531, residues 1754-2555: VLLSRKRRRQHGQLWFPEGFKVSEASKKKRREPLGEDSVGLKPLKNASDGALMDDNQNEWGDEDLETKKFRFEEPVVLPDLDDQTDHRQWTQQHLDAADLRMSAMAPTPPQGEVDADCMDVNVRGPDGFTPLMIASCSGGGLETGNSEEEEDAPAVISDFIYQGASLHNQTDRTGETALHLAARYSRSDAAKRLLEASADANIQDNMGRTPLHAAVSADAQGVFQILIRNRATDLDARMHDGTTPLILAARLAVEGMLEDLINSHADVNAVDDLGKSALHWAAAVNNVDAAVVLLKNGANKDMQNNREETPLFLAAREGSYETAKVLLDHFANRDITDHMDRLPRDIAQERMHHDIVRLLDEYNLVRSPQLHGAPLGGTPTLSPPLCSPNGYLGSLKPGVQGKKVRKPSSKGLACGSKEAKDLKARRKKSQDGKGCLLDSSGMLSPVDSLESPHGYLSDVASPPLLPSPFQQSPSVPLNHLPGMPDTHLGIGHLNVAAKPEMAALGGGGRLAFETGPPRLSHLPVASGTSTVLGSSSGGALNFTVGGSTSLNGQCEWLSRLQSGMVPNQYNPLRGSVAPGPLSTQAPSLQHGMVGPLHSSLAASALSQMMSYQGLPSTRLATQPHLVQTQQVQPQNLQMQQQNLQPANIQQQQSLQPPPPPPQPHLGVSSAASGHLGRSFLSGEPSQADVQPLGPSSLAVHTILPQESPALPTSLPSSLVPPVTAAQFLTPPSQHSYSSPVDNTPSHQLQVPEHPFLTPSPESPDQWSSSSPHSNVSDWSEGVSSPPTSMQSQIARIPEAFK
UniProt Q969H0: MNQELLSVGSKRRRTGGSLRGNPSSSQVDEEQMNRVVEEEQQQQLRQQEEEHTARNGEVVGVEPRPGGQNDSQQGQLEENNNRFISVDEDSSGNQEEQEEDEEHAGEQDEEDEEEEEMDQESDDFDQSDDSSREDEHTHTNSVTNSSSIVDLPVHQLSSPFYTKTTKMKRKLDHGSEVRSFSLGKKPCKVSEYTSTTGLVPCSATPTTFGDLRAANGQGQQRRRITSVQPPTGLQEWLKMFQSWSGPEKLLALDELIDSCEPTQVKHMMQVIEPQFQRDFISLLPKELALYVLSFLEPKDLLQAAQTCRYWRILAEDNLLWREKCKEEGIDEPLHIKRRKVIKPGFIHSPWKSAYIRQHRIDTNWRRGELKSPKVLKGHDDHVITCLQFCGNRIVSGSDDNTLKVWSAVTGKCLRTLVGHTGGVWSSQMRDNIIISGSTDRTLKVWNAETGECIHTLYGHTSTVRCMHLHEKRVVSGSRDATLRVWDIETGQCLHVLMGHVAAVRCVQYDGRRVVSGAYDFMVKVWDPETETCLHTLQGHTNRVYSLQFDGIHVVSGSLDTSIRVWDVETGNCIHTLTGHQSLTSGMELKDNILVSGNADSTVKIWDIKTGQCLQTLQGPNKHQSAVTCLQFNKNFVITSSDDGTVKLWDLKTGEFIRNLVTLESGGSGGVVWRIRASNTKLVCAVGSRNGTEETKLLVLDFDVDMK
UniProt Q15208: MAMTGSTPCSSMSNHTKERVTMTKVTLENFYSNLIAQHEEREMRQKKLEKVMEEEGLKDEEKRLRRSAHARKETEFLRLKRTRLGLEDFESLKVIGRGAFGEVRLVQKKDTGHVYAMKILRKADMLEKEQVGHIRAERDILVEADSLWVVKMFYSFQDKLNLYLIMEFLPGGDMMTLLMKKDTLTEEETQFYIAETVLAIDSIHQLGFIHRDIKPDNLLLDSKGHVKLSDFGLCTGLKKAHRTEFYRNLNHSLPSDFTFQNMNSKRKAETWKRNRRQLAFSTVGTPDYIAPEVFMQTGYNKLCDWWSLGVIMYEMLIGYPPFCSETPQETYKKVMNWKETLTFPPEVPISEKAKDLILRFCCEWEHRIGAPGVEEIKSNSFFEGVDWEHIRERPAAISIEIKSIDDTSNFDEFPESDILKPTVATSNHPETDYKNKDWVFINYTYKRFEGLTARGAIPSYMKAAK

Assay [1] addresses Notch1 intracellular domain (endogenous NICD) (human (endogenous in SUM149)) (UniProt P46531). Nature of the assay: co-IP; total protein of SUM149 cells, endogenous proteins, immunoprecipitation and western blot with antibodies as indicated (Fig. 5d).
The target of assay [2] is Fbw7/Sel10 ubiquitin ligase (UniProt Q969H0). Nature of the assay: co-IP; SUM149 cells transfected with indicated vectors for 24 h; total protein, immunoprecipitation and western blot (Fig. 5h). For orientation: A western blot detects proteins with antibodies after separation by electrophoresis.
The target in assay [3] is Notch1 intracellular domain (endogenous NICD) (human (endogenous in SUM149)) (UniProt P46531). Description: co-IP; wild type or kinase-dead NDR1 or control vector overexpressed in SUM149 cells for 24 h; total protein, immunoprecipitation and western blot (Fig. 5e).

These are yes or no findings as the source states them, for the method shown. Binding seen in cells or lysates may run through a third protein. Some entries that bind do so weakly or less than the wild type.

Consider “NDR1/STK38 kinase (endogenous) (from UniProt Q15208 1-465)”, for which the binding entry in assay [1] is recorded as “binds”. Take “wild type NDR1 (overexpressed) (from UniProt Q15208 1-465)”: the binding result in assay [2] and in assay [3] was “binds” in each case. For “kinase-dead (K118A) NDR1 (overexpressed) (from UniProt Q15208 1-465)”, the binding entry in assay [2] and in assay [3] was “binds” each time.
